# Values joined by “and” are separate entries in the source; they are usually repeats but may differ in a detail not shown here. Identical values can stand only once. This list was built around the results that the source calls inconclusive (neither active nor inactive); the mix of calls is not that of the screen. Where the call is inconclusive, the potency comes from a doubtful curve fit. Some structures have more than one record in an assay (separate samples or runs), and their calls can disagree. Active and inactive are the calls of the source. Rule for the calls: active = hit-call score of the fitted dose curve at least 0.9, where 1 is the maximum; inconclusive = response in the unintended direction; inactive = score below 0.9.
# Chains of the proteins cited; added tags and fusions are not shown. Lines headed by an entry give the natural chain unless they say otherwise; changes in a name come on top.
# UniProt P37231: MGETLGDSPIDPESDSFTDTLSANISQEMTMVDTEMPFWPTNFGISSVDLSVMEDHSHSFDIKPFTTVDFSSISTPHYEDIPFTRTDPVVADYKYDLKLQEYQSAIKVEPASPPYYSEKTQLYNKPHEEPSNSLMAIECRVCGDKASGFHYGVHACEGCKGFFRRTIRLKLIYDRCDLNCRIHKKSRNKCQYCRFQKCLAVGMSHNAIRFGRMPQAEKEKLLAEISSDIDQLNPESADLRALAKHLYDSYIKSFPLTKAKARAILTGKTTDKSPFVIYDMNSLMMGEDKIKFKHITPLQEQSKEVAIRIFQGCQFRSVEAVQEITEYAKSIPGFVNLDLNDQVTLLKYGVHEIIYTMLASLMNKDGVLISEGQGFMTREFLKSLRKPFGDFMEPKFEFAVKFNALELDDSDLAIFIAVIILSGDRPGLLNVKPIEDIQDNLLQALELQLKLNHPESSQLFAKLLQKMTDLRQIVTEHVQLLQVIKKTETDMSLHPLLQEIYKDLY
# UniProt P13631, whole entry, looked up: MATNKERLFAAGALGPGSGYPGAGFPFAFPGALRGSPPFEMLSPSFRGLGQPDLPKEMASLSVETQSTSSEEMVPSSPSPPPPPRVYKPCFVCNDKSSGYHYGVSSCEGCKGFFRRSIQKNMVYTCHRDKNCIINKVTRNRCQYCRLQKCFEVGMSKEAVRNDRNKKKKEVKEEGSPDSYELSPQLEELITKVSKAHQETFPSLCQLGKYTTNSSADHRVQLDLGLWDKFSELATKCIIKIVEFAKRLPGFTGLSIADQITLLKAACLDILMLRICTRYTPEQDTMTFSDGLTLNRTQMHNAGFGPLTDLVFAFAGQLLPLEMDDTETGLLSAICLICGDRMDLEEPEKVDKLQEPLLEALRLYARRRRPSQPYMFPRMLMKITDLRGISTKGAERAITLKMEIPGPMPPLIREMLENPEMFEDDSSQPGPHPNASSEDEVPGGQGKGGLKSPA
# UniProt Q92753: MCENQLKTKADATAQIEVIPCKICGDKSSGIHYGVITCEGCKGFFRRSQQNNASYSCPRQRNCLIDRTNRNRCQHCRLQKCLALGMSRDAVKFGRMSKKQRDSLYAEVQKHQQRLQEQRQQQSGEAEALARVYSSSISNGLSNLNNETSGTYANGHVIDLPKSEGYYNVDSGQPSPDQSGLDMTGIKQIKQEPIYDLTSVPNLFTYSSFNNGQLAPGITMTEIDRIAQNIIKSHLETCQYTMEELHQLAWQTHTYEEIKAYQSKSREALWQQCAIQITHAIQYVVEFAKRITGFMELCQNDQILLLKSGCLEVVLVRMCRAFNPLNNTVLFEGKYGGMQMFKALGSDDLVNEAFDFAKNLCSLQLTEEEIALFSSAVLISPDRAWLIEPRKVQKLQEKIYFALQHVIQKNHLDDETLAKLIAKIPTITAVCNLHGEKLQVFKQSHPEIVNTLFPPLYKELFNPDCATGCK
# UniProt P51449: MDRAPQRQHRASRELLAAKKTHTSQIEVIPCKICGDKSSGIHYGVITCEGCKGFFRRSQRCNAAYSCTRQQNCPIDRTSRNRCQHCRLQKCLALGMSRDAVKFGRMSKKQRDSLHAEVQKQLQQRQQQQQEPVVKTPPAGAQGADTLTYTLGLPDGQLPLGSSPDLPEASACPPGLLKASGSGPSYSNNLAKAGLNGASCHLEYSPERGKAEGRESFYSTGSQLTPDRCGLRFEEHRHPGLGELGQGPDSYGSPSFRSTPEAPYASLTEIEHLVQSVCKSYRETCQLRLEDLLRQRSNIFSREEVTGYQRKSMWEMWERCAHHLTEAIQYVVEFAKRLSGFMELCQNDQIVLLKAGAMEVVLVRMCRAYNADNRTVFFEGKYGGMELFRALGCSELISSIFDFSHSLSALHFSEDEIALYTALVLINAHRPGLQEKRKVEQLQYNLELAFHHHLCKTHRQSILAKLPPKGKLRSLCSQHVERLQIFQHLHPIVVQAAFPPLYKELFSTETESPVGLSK
# UniProt P19793: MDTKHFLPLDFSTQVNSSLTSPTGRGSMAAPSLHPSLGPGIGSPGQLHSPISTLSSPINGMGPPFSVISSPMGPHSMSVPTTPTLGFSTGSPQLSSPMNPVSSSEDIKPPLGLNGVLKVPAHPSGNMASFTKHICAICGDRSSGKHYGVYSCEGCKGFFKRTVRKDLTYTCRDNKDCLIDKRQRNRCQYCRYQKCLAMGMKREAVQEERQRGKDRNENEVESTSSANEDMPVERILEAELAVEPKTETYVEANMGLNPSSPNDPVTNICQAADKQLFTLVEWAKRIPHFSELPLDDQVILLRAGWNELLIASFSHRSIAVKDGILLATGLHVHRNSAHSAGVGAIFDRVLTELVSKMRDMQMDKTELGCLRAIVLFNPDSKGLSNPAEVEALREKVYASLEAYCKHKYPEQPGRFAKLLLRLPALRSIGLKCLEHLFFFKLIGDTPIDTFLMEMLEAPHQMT
# UniProt P28702: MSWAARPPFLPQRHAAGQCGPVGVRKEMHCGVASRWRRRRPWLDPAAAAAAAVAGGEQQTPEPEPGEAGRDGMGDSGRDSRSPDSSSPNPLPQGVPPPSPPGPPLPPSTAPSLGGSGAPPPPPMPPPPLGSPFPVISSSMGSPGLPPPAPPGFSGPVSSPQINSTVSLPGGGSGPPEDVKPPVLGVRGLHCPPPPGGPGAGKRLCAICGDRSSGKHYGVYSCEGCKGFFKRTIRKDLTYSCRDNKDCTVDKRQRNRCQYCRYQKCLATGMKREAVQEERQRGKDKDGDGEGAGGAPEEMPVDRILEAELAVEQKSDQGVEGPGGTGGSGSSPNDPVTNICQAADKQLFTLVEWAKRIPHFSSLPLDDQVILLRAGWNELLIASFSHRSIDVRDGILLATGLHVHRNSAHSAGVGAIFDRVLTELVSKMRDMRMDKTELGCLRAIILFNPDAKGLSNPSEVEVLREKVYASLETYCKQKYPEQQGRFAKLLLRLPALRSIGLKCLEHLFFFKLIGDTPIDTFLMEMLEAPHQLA
# UniProt O75469: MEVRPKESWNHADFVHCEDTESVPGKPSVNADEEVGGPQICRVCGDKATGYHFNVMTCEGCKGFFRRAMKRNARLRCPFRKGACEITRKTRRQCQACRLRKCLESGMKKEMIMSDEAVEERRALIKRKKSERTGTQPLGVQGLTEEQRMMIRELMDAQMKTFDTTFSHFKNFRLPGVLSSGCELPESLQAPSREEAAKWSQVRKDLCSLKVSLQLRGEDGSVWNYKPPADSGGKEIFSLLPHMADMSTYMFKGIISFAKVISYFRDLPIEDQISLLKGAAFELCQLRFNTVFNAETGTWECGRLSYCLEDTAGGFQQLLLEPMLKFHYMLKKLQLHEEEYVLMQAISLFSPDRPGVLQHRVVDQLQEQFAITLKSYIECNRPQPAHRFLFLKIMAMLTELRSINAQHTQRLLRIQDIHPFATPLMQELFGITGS
# UniProt P10827: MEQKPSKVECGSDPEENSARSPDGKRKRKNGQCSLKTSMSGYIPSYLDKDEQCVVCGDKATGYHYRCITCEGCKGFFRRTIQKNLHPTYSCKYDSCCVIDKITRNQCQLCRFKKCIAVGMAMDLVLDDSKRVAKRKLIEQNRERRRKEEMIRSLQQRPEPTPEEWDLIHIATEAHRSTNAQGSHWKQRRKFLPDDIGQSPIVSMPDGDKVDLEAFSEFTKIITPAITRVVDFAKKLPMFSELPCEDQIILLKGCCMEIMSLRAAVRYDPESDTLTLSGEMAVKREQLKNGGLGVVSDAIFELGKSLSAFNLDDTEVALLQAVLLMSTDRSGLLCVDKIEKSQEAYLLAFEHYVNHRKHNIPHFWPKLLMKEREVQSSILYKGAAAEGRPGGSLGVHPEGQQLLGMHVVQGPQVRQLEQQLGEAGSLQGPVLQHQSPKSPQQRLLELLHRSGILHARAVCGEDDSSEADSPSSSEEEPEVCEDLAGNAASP
# UniProt P11473: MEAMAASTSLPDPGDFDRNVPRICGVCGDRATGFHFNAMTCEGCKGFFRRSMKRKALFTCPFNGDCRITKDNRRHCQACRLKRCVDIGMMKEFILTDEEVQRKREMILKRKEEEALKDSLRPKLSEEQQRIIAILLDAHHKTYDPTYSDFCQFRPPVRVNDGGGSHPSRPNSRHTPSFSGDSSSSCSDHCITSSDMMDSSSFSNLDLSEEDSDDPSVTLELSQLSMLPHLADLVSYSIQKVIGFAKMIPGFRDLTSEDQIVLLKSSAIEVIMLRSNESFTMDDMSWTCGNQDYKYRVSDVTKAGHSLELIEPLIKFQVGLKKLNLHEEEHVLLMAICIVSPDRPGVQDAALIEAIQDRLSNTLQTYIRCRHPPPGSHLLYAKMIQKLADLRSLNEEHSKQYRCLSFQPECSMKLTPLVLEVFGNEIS
# How the values were obtained:
# [1] = molecular target: Peroxisome proliferator-activated receptor gamma (Homo sapiens) (UniProt P37231); experiment: ATG_PPARg_TRANS: Attagene TRANS-FACTORIAL HepG2 Assay for human Peroxisome Proliferator-activated Receptor-gamma (PPARg) (AID 2283007)
# Method in brief: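 Endpoint reflects upward reporter mRNA change versus DMSO controls. Setup: transiently transfected HepG2, GAL4-UAS reporters driven by chimeric NR-Gal4, 24 h incubation, RT-PCR with capillary electrophoresis read-out.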
# [2] = molecular target: human Retinoic Acid Receptor gamma (RARg), RARG (gene 5916) (UniProt P13631); experiment: ATG_RARg_TRANS: Attagene TRANS-FACTORIAL HepG2 Assay for human Retinoic Acid Receptor gamma (RARg) (AID 2283009);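 for AC50: AC50 is for reporter induction above DMSO meaning RARg activation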
# Method in brief: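 HepG2 cells transiently transfected with multiplexed reporter units expressing chimeric RARg-GAL4 and GAL4-UAS-driven reporters; 24 h compound exposure. Reporter mRNA quantified by RT-PCR with fluorescent labelling and capillary electrophoresis; gain-of-signal fitted relative to DMSO baseline.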
# [3] = molecular target: human RAR-related Orphan Receptor beta (RORb), RORB (gene 6096) (UniProt Q92753); experiment: ATG_RORb_TRANS: Attagene TRANS-FACTORIAL HepG2 Assay for human RAR-related Orphan Receptor beta (RORb) (AID 2283010);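 for AC50: potency for increased reporter mRNA meaning activation of RORb-Gal4 chimera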
# Method in brief: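 HepG2 cells were transiently transfected with multiplexed GAL4-UAS reporter units expressing chimeric nuclear receptor–GAL4 proteins, then dosed for 24 h. Reporter mRNA was quantified by RT-PCR with fluorescent labelling and capillary electrophoresis; gain of signal was fitted relative to DMSO.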
# [4] = molecular target: human RAR-related Orphan Receptor gamma (RORg), RORC (gene 6097) (UniProt P51449); experiment: ATG_RORg_TRANS: Attagene TRANS-FACTORIAL HepG2 Assay for human RAR-related Orphan Receptor gamma (RORg) (AID 2283011);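 for AC50: potency for induction of reporter transcripts above DMSO so activators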
# Method in brief: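 Readout: reporter transcript induction (RT-PCR, fluorescent primer extension, capillary electrophoresis) after 24 h compound exposure of transiently transfected HepG2 cells carrying a RORg-Gal4 chimera and GAL4-UAS reporters; DMSO served as baseline, with increasing signal fitted.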
# [5] = molecular target: Retinoic acid receptor RXR-alpha (Homo sapiens) (UniProt P19793); experiment: ATG_RXRa_TRANS: Attagene TRANS-FACTORIAL HepG2 Assay for human Retinoid X Receptor alpha (RXRa) (AID 2283012)
# Method in brief: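 HepG2 cells transiently transfected with multiplexed GAL4-UAS reporter units and chimeric NR-GAL4 fusions, dosed 24 h. Reporter mRNA measured by RT-PCR, FAM labelling, HpaI digestion and capillary electrophoresis; gain-of-signal fitted relative to DMSO baseline.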
# [6] = molecular target: human Retinoid X Receptor beta (RXRb), RXRB (gene 6257) (UniProt P28702); experiment: ATG_RXRb_TRANS: Attagene TRANS-FACTORIAL HepG2 Assay for human Retinoid X Receptor beta (RXRb) (AID 2283013)
# Method in brief: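 HepG2 cells transiently transfected with multiplexed reporter units driven by GAL4-UAS and exogenous chimeric NR-Gal4 proteins; treated 24 h. Reporter mRNA measured by RT-PCR, 6-FAM labelling and capillary electrophoresis; gain-of-signal fitted versus DMSO baseline.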
# [7] = molecular target: Nuclear receptor subfamily 1 group I member 2 (Homo sapiens) (UniProt O75469); experiment: ATG_PXR_TRANS: Attagene TRANS-FACTORIAL HepG2 Assay for human Pregnane X Receptor (PXR) (AID 2283008)
# Method in brief: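 Measures mRNA induction of a GAL4-UAS-driven reporter in human HepG2 cells transiently expressing PXR fused to Gal4, following 24 h treatment. DMSO served as negative control and baseline.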
# [8] = molecular target: human Thyroid Receptor alpha (THRa1), THRA (gene 7067) (UniProt P10827); experiment: ATG_THRa1_TRANS: Attagene TRANS-FACTORIAL HepG2 Assay for human Thyroid Receptor alpha (THRa1) (AID 2283014)
# Method in brief: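 HepG2 cells transiently transfected with multiplexed GAL4-UAS reporter units for exogenous chimeric THRa1-Gal4; reporter mRNA measured 24 h after dosing by RT-PCR, 6-FAM labelling, HpaI digestion and capillary electrophoresis. Gain-of-signal fitted versus DMSO baseline.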
# [9] = molecular target: human Vitamin D Receptor (VDR), VDR (gene 7421) (UniProt P11473); experiment: ATG_VDR_TRANS: Attagene TRANS-FACTORIAL HepG2 Assay for human Vitamin D Receptor (VDR) (AID 2283022)
# Method in brief: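 HepG2 cells were transiently transfected with multiple GAL4-UAS reporter units, so signal reflects exogenous chimeric receptor-Gal4 activity. After 24 h compound exposure, reporter mRNA was measured by RT-PCR, fluorescent labelling and capillary electrophoresis, fitted for gain of signal versus DMSO.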
compound,measurement,setting,value
c1cc(-c2ccncc2)ccn1,AC50,[1],inconclusive: 100 µM
same,AC50,[7],inconclusive: 100 µM
same,outcome,[2],inactive
same,AC50,[3],inconclusive: 100 µM
same,AC50,[4],inconclusive: 0.493 µM
same,AC50,[5],inconclusive: 15.1 µM
same,AC50,[6],inconclusive: 100 µM
same,AC50,[8],inconclusive: 100 µM
CCCCCCCCCCCC(=O)NCCCN(C)C,AC50,[1],inconclusive: 11.1 µM
same,outcome,[7],inactive
same,AC50,[2],inconclusive: 17.4 µM
same,AC50,[3],inconclusive: 11.1 µM
same,AC50,[4],inconclusive: 11.1 µM
same,outcome,[5],inactive
same,AC50,[6],inconclusive: 11.1 µM
same,AC50,[8],inconclusive: 11.1 µM
OC(O)C(F)(F)C(F)(F)F,outcome,[1],inactive
same,AC50,[7],inconclusive: 150 µM
same,AC50,[2],inconclusive: 150 µM
same,AC50,[3],inconclusive: 150 µM
same,AC50,[4],inconclusive: 150 µM
same,outcome,[5],inactive
same,AC50,[6],inconclusive: 150 µM
same,AC50,[8],inconclusive: 150 µM
O=C(O)C(F)(F)C(F)(F)F,AC50,[1],inconclusive: 150 µM
same,outcome,[1],inactive
same,AC50,[7],inconclusive: 150 µM
same,AC50,[2],inconclusive: 150 µM
same,outcome,[3],inactive
same,AC50,[4],inconclusive: 150 µM
same,AC50,[6],inconclusive: 150 µM
C[Si](Cl)(Cl)CCC(F)(F)C(F)(F)C(F)(F)C(F)(F)C(F)(F)C(F)(F)F,AC50,[1],inconclusive: 8.76 µM
same,AC50,[7],inconclusive: 50 µM
same,AC50,[2],inconclusive: 50 µM
same,AC50,[3],inconclusive: 50 µM
same,outcome,[4],inactive
same,AC50,[6],inconclusive: 50 µM
same,AC50,[8],inconclusive: 50 µM
same,outcome,[9],inactive
NC(=O)c1ccc(N)cc1,AC50,[1],inconclusive: 100 µM
same,AC50,[7],inconclusive: 23.8 µM
same,AC50,[2],inconclusive: 100 µM
same,AC50,[3],inconclusive: 100 µM
same,outcome,[4],inactive
same,AC50,[5],inconclusive: 100 µM
same,outcome,[6],inactive
same,AC50,[8],inconclusive: 19.8 µM
same,outcome,[9],inactive
O=C(O)C1CCC(C(=O)O)CC1 (stereo not drawn),AC50,[1],inconclusive: 100 µM
same,AC50,[7],inconclusive: 8.24 µM
same,AC50,[2],inconclusive: 100 µM
same,AC50,[3],inconclusive: 100 µM
same,AC50,[4],inconclusive: 182 µM
same,AC50,[5],inconclusive: 19.8 µM
same,AC50,[8],inconclusive: 2.26 µM

# — PubChem BioAssay (EPA / NIEHS)
